Assay results from patent US10759835B2, “Monomeric streptavidin mutants, methods of using the same and processes of manufacturing proteins” (The Research Foundation for The State University of New York, priority 2016, dated 2020).
Some of these results come from one statement about several compounds together.

Assay: Circular dichroism spectroscopy, thermal denaturation
Type: physicochemical
Details: for midpoint of unfolding: PBS, without biotin; for denaturation temperature: bound to biotin
Experimental: FIG. 4. In vitro characterization of purified mSA mutants. a) Stability of mSA-RF and mSA-RWT in PBS was measured by circular dichroism spectroscopy with or without biotin. b) Fluorescence polarization spectroscopy was used to measure the dissociation rate of biotin-fluorescein. The dissociation rate, koff, was computed by fitting normalized fluorescence polarization data, or bound fraction f, to an exponentially decaying function, i.e. ƒ=e^−k^off^*t The measurements were taken at 37° C. c) The equilibrium affinity of binding Kd between mSA-RF and biotin-fluorescein was measured by FP. d) mSA-S25H and mSA-RF were analyzed by size exclusion chromatography to estimate their molecular weights in solution. Each mutant eluted with a retention time that was consistent with monomeric streptavidin. The molecular weight standards (arrows) correspond to 66.0, 29.0, 12.4 and 6.5 kDa from left to right.
FIG. 8. Circular dichroism spectra of mSA-RF after low pH treatment to release bound biotin is shown in a). mSA-RF was first buffer exchanged to 100 mM glycine (pH 2.3) and then back to PBS (pH 7.5) before CD analysis. The spectra obtained at temperatures 30, 40, 50, 60, 70, and 80° C. were overlaid. The spectra at lower temperatures were colored darker than the spectra at higher temperatures, i.e. the darkest for 30° C. and the lightest for 80° C. The CD values at 235 nm (from FIG. 8a) were used to compute the unfolded fraction shown in b).
FIG. 9. To evaluate the importance of the biotin additive, mSA was induced without biotin in the medium as shown in a). The culture medium was then pH adjusted to 7.5 and poured over Ni-NTA resin, which immediately turned brown (not shown). 1. Culture medium, 2. Flow through after Ni-NTA, 3. Wash, 4. Elution. The amount of purified mSA was approximately 20% of the expressed protein. (*) mSA. Thermal denaturation of mSA-RF purified with (circle) and without (square) biotin in the medium is shown in b).
Purified mSA was diluted to 15 μM in PBS and loaded in a quartz cuvette with 1.0 mm path length. Circular dichroism (CD) spectra were obtained using a J-715 JASCO Spectropolarimeter. The spectra were collected between 210 and 250 nm at temperatures between 20 and 90° C. in 2° C. increments. Streptavidin CD spectrum has a characteristic positive peak between 232-236 nm, which can be used to track temperature induced unfolding (Lim, et al., 2013, Biotechnol Bioeng, 110, 57-67). The fraction of denatured protein computed based on the value at 235 nm was plotted against temperature and fitted to the integrated form of the Van't Hoff equation to estimate the denaturation temperature.

| Molecule | midpoint of unfolding | denaturation temperature |
| --- | --- | --- |
| mSA-RWT: monomeric streptavidin mutant SEQ ID NO: 4, S25R, T48W, E124T (protein, Modified streptavidin) AEAGITGTWYNQRGSTFTVTAGADGNLTGQYENRAQGWGCQNSPYTLTGRYNGTKLEWRVEWNNSTENCHSRTEWRGQYQGGAEARINTQWNLTYEGGSGPATTQGQDTFTKVKPSAAS | 59-61 °C | 68-70 °C |
| mSA-RF: monomeric streptavidin mutant SEQ ID NO: 3, S25R and T48F (protein, Modified streptavidin) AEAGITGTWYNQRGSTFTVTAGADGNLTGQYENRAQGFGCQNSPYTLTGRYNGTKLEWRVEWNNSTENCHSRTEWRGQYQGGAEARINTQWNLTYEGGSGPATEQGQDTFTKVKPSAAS | 59-61 °C | 68-70 °C |
